From publication PMC539286
Positions count from the first letter of the chain named. Names may count otherwise. Like-named read-outs stand apart in the source and are kept apart here. No constants are given. Whether binding was seen depends on the method and setting. Some binding calls cover weakened binding; strength is not graded here. For part of these data: Sequences can lack the tags named with a protein.

The chains behind the UniProt entries cited, without tags or fusion partners. Where a name states a change or a piece, a line headed by the entry shows the natural chain unless it says otherwise.
UniProt P11166, whole entry: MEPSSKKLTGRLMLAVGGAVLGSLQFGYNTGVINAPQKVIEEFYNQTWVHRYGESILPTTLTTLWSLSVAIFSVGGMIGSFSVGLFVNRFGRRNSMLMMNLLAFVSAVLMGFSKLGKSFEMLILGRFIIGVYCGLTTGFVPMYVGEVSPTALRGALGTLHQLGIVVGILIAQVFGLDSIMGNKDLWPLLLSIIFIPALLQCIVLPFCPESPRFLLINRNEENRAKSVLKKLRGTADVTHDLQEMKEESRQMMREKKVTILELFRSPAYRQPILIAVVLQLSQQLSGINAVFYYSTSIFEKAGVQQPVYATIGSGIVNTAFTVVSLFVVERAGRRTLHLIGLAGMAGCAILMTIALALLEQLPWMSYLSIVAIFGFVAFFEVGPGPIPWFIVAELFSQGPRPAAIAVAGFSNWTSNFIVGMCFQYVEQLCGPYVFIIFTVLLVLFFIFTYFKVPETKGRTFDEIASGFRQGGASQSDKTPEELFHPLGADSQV

B1: H1(R94A)SU, H1_(215)SU subdomain with Arg94 mutated to Ala (Fc fusion, UniProt P23064 21-215)
chain: DYSPSCCTLTIGVSSYHSKPCNPAQPVCSWTLDLLALSADQALQPPCPNLVSYSSYHATYSLYLFPHWIKKPNANGGGYYSASYSDPCSLKCPYLGCQSWTCPYTGAVSSPYWKFQQDVNFTQEVSRLNINLHFSKCGFPFSLLVDAPGYDPIWFLNTEPSQLPPTAPPLLPHSNLDHILEPSIPWKSKLLTLVQ
B2: H1(D106A)SU, H1_(215)SU subdomain with Asp106 mutated to Ala (Fc fusion, UniProt P23064 21-215)
chain: B1 chain with A74R, D86A
B3: H1_(215)SU, soluble HTLV-1 SU amino terminal subdomain with the PRRH, rFc-tagged (Fc fusion, UniProt P23064 21-215)
chain: B1 chain with A74R
B4: H1(S101A)SU, H1_(215)SU subdomain with Ser101 mutated to Ala (Fc fusion, UniProt P23064 21-215)
chain: B1 chain with A74R, S81A

Columns and labels:
[1] = molecular target: HTLV receptor (Glut1, the ubiquitous vertebrate glucose transporter) on human cells (human (endogenous in 293T)) (UniProt P11166); assay: flow cytometry on cells; binding interference: 293T cells transfected with Env or rFc-tagged SU subdomain vectors, 24 and 48 h later incubated with the challenging soluble H2_(178)SU-HA; 12CA5 anti HA antibody and anti-mouse-IgG FITC
[2] = molecular target: HTLV receptor (Glut1, the ubiquitous vertebrate glucose transporter) on human cells (human (endogenous in 293T)) (UniProt P11166); assay: flow cytometry on cells; data not shown: cell surface binding of H2_(178)SU carrying the same mutations as the H1_(215)SU mutants; cells and tag not stated
[3] = molecular target: HTLV receptor (Glut1, the ubiquitous vertebrate glucose transporter) on human cells (human (endogenous in 293T)) (UniProt P11166); assay: flow cytometry on cells; 300 ul conditioned medium of transfected 293T cells with rFc-tagged soluble SU on 5 x 10^5 target cells detached with PBS-EDTA, 30' at 37°C, anti-rabbit-IgG FITC; target cells A23, 293T, NIH3T3, NIH3T3TK^-, HeLa, D17, Jurkat, activated primary human T cells
[4] = molecular target: T1, HTLV receptor (Glut1) on murine fibroblasts (mouse (endogenous in NIH3T3)) (UniProt P17809); assay: as above
T1 sequence: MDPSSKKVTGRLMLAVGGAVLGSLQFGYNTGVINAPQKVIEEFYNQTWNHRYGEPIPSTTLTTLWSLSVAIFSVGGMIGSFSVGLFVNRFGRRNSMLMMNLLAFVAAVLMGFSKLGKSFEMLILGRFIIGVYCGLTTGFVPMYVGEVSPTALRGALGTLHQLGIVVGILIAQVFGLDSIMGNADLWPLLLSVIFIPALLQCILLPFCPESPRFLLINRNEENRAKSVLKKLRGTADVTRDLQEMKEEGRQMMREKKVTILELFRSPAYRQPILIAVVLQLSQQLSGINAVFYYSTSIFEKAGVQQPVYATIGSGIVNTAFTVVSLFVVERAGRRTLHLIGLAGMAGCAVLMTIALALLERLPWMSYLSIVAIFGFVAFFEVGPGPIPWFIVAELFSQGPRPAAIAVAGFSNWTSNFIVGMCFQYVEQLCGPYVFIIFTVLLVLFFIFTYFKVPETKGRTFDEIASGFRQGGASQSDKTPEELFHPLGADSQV

[5] = molecular target: HTLV receptor (Glut1, the ubiquitous vertebrate glucose transporter) on human cells (human (endogenous in 293T)) (UniProt P11166); assay: as above; remark: listed apart in the source
[6] = molecular target: T1, HTLV receptor (Glut1) on murine fibroblasts (mouse (endogenous in NIH3T3)); assay: as above; remark: listed apart in the source

Molecule | binding [2] | binding [5] | other results
H1_(183)FEnv, chimeric HTLV-1/F-MLV Env (from UniProt P23064 21-183; P03390 270-675) | – | – | binding [1]: binds
H2_(178)SU with the mutation that corresponds to HTLV-1 R94A (Arg90 of HTLV-2 Env to Ala) (from UniProt P03383 19-178) (domain or fragment) | binds | – | –
H2_(178)SU with the mutation that corresponds to HTLV-1 S101A (Ser97 of HTLV-2 Env to Ala) (from UniProt P03383 19-178) (domain or fragment) | binds | – | –
H2_(178)SU with the mutation that corresponds to HTLV-1 Y114A (Tyr110 of HTLV-2 Env to Ala) (from UniProt P03383 19-178) (domain or fragment) | binds weakly | – | –
H2_(178)SU, soluble HTLV-2 SU amino terminal subdomain without the PRRH, rFc-tagged (from UniProt P03383 19-178) (Fc fusion) | binds | – | binding [3]: binds; binding [4]: binds
H2_(178)SU-HA, HA-tagged soluble HTLV-2 SU amino terminal subdomain (from UniProt P03383 19-178) (domain or fragment) | – | – | binding [1]: binds
H2_(211)SU, soluble HTLV-2 SU amino terminal subdomain with the PRRH, rFc-tagged (from UniProt P03383 19-211) (Fc fusion) | – | – | binding [3]: binds; binding [4]: binds
B1 | – | binds | –
B2 | – | binds | –
B3 | – | binds | binding [6]: binds
B4 | – | binds | –
